The record followed here is the supplement of paper PMC11006884.

Sequences of proteins named here, by UniProt entry; tags and fusion partners are left off. A change or cut given only in a name is not applied to a line headed by its entry.
UniProt Q9BUJ2: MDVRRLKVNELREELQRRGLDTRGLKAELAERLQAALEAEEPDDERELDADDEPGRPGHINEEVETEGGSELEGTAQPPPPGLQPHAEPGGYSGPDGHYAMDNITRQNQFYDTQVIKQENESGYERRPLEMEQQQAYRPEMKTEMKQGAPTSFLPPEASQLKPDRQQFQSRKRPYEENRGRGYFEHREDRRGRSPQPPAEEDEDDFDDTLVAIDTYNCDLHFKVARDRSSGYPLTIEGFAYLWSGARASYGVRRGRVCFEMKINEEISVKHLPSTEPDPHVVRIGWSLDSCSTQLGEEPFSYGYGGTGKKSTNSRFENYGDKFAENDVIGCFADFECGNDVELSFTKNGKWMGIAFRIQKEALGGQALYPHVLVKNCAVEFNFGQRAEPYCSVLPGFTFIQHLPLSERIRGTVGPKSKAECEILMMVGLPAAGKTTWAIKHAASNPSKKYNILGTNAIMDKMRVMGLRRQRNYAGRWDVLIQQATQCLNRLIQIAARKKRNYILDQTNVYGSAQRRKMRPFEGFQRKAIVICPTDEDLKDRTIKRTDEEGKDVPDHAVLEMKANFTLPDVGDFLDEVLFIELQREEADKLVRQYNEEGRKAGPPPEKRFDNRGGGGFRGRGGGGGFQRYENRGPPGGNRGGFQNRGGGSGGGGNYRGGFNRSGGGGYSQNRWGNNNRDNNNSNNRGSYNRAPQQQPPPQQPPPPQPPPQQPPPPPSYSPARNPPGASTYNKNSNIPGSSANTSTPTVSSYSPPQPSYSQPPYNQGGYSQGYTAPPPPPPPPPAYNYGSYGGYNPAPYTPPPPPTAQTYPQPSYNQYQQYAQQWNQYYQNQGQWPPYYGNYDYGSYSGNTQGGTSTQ
UniProt Q9BSD7: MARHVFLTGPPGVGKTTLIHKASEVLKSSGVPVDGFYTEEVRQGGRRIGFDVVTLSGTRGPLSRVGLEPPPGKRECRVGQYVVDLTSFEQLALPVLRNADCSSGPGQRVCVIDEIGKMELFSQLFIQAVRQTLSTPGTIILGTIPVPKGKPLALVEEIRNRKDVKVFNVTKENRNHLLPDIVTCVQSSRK
UniProt Q9C0C7: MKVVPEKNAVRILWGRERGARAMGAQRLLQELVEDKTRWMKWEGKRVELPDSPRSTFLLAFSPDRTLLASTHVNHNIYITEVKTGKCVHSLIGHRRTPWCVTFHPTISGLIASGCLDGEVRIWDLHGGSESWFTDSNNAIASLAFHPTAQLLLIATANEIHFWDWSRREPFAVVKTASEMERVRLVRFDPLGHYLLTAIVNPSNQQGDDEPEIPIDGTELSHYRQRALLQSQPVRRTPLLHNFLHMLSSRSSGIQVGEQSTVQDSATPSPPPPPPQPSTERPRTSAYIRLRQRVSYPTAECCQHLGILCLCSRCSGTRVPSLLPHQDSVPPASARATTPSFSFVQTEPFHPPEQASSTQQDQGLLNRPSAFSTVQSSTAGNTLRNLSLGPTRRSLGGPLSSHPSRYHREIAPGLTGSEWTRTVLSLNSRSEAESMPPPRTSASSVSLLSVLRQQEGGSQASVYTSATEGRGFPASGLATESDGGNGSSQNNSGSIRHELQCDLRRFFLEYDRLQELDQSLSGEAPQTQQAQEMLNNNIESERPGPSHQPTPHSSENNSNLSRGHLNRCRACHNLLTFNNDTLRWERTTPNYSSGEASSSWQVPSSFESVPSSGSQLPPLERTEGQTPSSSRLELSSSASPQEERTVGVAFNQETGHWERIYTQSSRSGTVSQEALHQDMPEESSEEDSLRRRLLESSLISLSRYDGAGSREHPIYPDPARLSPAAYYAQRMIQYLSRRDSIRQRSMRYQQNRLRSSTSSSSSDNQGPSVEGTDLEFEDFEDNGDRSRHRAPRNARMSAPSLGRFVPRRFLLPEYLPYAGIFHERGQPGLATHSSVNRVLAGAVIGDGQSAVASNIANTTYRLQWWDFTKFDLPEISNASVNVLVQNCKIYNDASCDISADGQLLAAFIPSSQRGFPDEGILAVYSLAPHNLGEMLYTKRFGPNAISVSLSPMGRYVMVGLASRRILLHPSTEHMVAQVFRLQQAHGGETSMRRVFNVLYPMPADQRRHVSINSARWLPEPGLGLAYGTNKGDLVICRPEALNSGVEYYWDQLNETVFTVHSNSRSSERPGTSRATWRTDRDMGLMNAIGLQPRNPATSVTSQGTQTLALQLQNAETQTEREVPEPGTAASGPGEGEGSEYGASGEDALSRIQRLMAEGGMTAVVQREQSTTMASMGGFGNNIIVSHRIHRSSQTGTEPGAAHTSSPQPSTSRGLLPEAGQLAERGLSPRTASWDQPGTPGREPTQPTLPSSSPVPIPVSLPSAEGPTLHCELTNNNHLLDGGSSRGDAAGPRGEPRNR
UniProt Q9BZZ5: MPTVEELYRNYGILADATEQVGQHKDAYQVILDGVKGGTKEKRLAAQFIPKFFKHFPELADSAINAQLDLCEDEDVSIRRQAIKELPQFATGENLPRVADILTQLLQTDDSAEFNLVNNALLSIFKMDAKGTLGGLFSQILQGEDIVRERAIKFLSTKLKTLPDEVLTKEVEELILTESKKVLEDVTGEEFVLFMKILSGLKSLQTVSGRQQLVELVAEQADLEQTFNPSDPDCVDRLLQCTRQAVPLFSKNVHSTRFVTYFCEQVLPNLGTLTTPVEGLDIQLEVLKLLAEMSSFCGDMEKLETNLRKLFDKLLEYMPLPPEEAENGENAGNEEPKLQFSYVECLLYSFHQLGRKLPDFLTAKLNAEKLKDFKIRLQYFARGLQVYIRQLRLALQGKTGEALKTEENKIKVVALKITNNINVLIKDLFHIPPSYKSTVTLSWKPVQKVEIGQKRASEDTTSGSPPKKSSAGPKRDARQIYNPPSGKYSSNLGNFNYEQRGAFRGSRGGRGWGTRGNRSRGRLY
UniProt Q9H1A4, whole entry, looked up: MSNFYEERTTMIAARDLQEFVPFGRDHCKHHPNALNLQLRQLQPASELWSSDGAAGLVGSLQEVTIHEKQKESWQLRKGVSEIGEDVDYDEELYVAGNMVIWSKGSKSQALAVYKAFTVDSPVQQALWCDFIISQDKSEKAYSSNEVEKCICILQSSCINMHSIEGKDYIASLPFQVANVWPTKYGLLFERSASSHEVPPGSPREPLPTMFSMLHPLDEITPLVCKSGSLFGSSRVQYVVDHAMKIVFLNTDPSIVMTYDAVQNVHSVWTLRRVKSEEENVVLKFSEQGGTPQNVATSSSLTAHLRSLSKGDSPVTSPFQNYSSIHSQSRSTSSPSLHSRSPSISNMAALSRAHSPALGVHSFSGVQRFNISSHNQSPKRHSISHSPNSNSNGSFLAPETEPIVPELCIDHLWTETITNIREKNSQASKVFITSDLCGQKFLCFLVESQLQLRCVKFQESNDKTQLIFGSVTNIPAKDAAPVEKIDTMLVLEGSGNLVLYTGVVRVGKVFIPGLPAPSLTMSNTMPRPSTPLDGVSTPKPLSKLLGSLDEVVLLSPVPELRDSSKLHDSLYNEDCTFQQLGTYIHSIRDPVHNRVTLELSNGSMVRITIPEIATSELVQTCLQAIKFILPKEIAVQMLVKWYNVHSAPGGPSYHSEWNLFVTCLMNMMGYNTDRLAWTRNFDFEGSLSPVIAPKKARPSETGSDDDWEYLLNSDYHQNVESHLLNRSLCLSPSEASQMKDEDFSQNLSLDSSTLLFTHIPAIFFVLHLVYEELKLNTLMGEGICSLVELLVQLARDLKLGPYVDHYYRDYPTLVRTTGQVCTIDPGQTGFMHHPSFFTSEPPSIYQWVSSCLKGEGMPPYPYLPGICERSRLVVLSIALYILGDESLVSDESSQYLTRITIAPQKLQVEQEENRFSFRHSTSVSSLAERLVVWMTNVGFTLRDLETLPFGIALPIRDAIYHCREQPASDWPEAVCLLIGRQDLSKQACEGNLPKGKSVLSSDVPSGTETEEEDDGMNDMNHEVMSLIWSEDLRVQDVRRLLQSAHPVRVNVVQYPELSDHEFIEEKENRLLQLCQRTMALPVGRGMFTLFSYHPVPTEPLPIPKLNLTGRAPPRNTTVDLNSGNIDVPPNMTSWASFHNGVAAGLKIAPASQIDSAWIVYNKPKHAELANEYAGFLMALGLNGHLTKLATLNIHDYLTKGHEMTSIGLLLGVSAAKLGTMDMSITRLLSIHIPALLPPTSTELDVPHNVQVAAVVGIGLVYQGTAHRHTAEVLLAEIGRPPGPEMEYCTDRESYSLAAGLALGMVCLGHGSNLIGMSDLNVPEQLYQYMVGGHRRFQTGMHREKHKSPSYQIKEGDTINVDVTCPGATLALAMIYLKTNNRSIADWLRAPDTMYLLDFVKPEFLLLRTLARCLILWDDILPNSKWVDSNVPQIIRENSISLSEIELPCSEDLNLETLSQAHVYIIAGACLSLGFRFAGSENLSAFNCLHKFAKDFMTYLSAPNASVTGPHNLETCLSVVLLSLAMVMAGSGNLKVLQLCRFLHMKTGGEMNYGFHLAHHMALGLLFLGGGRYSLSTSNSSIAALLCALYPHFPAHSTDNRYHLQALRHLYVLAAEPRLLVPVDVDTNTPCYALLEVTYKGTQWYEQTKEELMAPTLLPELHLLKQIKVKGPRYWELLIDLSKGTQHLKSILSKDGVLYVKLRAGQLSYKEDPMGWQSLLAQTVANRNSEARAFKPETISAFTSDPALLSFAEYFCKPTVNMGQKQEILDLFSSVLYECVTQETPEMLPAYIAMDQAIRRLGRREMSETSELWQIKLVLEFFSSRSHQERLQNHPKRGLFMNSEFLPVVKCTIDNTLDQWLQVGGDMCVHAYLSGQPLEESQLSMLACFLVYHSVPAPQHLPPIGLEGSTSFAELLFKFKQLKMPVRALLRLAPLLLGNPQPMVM
UniProt Q9BWC9: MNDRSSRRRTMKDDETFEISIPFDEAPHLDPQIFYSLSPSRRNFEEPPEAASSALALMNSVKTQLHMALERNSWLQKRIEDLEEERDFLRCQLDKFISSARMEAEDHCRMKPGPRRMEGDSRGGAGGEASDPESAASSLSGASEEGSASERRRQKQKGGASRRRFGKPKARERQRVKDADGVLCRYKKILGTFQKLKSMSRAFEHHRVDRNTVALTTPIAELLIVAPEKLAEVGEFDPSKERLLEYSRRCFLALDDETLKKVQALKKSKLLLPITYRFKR
UniProt Q9BZE9, whole entry, looked up: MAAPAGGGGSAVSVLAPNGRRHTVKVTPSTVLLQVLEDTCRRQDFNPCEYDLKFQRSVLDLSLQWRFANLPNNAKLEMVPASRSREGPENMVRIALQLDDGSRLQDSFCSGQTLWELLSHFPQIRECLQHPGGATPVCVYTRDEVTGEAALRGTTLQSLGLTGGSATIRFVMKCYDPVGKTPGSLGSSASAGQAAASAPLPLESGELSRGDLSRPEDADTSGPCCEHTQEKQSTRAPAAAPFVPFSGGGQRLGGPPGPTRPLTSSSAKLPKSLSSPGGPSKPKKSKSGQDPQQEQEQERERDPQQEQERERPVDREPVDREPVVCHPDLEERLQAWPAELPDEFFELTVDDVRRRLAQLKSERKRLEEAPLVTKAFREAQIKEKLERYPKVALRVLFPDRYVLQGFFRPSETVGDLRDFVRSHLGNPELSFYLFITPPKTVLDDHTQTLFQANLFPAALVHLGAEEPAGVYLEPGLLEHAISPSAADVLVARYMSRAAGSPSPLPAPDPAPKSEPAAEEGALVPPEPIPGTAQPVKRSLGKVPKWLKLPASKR
UniProt Q9BTD8: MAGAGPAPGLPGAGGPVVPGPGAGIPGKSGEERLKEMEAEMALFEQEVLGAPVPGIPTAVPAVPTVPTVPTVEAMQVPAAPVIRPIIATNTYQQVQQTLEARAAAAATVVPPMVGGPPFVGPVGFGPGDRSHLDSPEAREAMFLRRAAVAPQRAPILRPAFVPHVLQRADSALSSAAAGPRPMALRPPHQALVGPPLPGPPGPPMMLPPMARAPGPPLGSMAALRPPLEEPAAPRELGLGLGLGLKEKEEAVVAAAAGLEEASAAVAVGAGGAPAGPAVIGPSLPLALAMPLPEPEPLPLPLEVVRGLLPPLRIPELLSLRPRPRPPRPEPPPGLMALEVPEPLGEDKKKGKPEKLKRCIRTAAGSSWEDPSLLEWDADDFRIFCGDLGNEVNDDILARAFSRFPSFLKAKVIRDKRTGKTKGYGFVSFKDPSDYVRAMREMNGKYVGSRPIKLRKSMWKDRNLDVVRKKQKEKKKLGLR
UniProt Q9BWF3: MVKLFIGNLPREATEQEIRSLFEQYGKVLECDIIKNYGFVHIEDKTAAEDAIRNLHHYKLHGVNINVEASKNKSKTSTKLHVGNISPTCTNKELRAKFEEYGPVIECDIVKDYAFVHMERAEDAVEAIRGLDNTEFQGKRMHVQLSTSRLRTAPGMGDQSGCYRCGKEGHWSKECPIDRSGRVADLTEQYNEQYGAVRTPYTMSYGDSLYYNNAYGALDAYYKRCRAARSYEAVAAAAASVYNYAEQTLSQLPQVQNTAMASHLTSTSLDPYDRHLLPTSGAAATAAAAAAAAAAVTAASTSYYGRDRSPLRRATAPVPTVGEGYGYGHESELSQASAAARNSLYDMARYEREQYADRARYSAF

This list holds what a sample rich in targets with a hit left over. The data scatter; read single values as rough. The list shows a part of the results, in another mix than the full data.

Compound in this assay: COC(=O)/C=C/c1ccccc1 [methyl cinnamate]
Kind of assay: log2 ratio of iodoacetamide-alkyne labeling of the cysteine site, DMSO over compound (competition); higher = stronger covalent engagement of the cysteine by the compound, active = 1 or more. The settings on record: 500 µM; treatment time 1 h; system: HEK293T cell lysate. An outline of the steps: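 For each cysteine, the log2 competition ratio is mean control-channel reporter intensity over mean compound-channel reporter intensity. HEK293T lysate (2 mg/mL) was exposed to vehicle or electrophile (500 µM, 1 h, ambient temperature), labelled with iodoacetamide alkyne (1 h), clicked to sCIP-TMT reagents, digested overnight with trypsin at 37 °C, streptavidin-enriched and analysed by Orbitrap Eclipse LC-MS/MS with FAIMS and FragPipe. Cysteines quantified in only one of three replicates, each with duplicate channels, were excluded.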
Take UBE2O C400 (UniProt Q9C0C9): the “log2 ratio of iodoacetamide-alkyne labeling” value (“log2 ratio” for short) was inactive: -0.0785.

UniProt Q9BXJ9_C465: the “log2 ratio” value is inactive: -0.0109.

With RPAP1 C84 (UniProt Q9BWH6), the “log2 ratio” value is inactive: 0.133.

In the case of HNRNPUL1 C487 (UniProt Q9BUJ2), the “log2 ratio” value was inactive: -0.065.

Consider UniProt Q9BSD7_C184, for which the “log2 ratio” value is inactive: 0.0965.

For AMBRA1 C571 (UniProt Q9C0C7), the “log2 ratio” value is inactive: -0.0346.

For C2orf49 C10 (UniProt Q9BVC5), the “log2 ratio” value was inactive: 0.216.

For UniProt Q9BTE3_C287, the “log2 ratio” value was inactive: 0.347.

Turning to HNRNPUL1 C532 (UniProt Q9BUJ2), the “log2 ratio” value is inactive: 0.0891.

For SETD2 C900 (UniProt Q9BYW2), the “log2 ratio” value was inactive: 0.128.

For API5 C241 (UniProt Q9BZZ5), the “log2 ratio” value is inactive: 0.388.

Consider XRN2 C62 (UniProt Q9H0D6), for which the “log2 ratio” value is inactive: -0.148.

With MRPL20 C93 (UniProt Q9BYC9), the “log2 ratio” value was inactive: 0.198.

Regarding TBCD C234 (UniProt Q9BTW9), the “log2 ratio” value was inactive: 0.0302.

On to FYCO1 C882 (UniProt Q9BQS8), for which the “log2 ratio” value was inactive: 0.223.

As for MSTO1 C485 (UniProt Q9BUK6), the “log2 ratio” value is inactive: 0.00848.

As for ANAPC1 C1412 (UniProt Q9H1A4), the “log2 ratio” value is inactive: 0.0106.

Consider UniProt Q9BU76_C179, for which the “log2 ratio” value is inactive: 0.23.

On to UniProt Q9BWC9_C250, for which the “log2 ratio” value is inactive: 0.0843.

UniProt Q9BXJ9_C82: the “log2 ratio” value was inactive: 0.0594.

On to SPATA5L1 C309 (UniProt Q9BVQ7), for which the “log2 ratio” value is inactive: 0.225.

On to MRPL4 C311 (UniProt Q9BYD3), for which the “log2 ratio” value is inactive: -0.168.

In the case of XRN2 C736 (UniProt Q9H0D6), the “log2 ratio” value was inactive: -0.0569.

As to MRPL37 C153 (UniProt Q9BZE1), the “log2 ratio” value is inactive: 0.0654.

Take ASPSCR1 C174 (UniProt Q9BZE9): the “log2 ratio” value was inactive: -0.222.

Consider RBM42 C385 (UniProt Q9BTD8), for which the “log2 ratio” value is inactive: 0.0784.

Take FANCD2 C758 (UniProt Q9BXW9): the “log2 ratio” value is inactive: -0.177.

As for KIFC1 C663 (UniProt Q9BW19), the “log2 ratio” value is inactive: 0.23.

For the target TARS2 C185 (UniProt Q9BW92), the “log2 ratio” value was inactive: 0.201.

For the target RBM4 C31 (UniProt Q9BWF3), the “log2 ratio” value was inactive: -0.213.

For TNKS1BP1 C716 (UniProt Q9C0C2), the “log2 ratio” value was inactive: 0.379.

In the case of HNRNPUL1 C391 (UniProt Q9BUJ2), the “log2 ratio” value was inactive: 0.0605.

With ILKAP C221 (UniProt Q9H0C8), the “log2 ratio” value is inactive: -0.153.

For the target UniProt Q9BQI3_C466, the “log2 ratio” value is inactive: 0.159.

Take LMF2 C696 (UniProt Q9BU23): the “log2 ratio” value was inactive: 0.404.

As for DDX23 C692 (UniProt Q9BUQ8), the “log2 ratio” value is inactive: 0.156.

Take GNL3 C234 (UniProt Q9BVP2): the “log2 ratio” value was inactive: 0.189.

For UTP14A C380 (UniProt Q9BVJ6), the “log2 ratio” value was inactive: 0.531.
